No constants are given. Whether binding was seen depends on the method and setting. In cells and extracts the contact can be indirect. A yes stands for co-enrichment or nearness to the bait. Other partners may have been found.

Drawing on doi:10.1101/2025.03.25.645379, this text covers binding for six molecules.

For assay [1], the target named is PacL1 fused to a C-terminal ALFA tag (M. tuberculosis H37Rv) (UniProt P96874). Nature of the assay: proximity labelling.
For assay [2], the target named is PacL1 with an internal ALFA tag (M. tuberculosis H37Rv). Nature of the assay: proximity labelling.

Turning to PPE20 (from UniProt P9WI22 1-539), the binding entry in assay [1] was “binds”.

B1: AhpC (protein, UniProt P9WQB7 1-195)
chain: MPLLTIGDQFPAYQLTALIGGDLSKVDAKQPGDYFTTITSDEHPGKWRVVFFWPKDFTFVCPTEIAAFSKLNDEFEDRDAQILGVSIDSEFAHFQWRAQHNDLKTLPFPMLSDIKRELSQAAGVLNADGVADRVTFIVDPNNEIQFVSATAGSVGRNVDEVLRVLDALQSDELCACNWRKGDPTLDAGELLKASA
On to B1, for which the binding result in assay [2] and in assay [1] was “binds” throughout.

B2: Rv2083 (protein, UniProt P9WLK3 1-314)
chain: MTSIESHPEQYWAAAGRPGPVPLALGPVHPGGPTLIDLLMALFGLSTNADLGGANADIEGDDTDRRAHAADAARKFSANEANAAEQMQGVGAQGMAQMASGIGGALSGALGGVMGPLTQLPQQAMQAGQGAMQPLMSAMQQAQGADGLAAVDGARLLDSIGGEPGLGSGAGGGDVGGGGAGGTTPTGYLGPPPVPTSSPPTTPAGAPTKSATMPPPGGASPASAHMGAAGMPMVPPGAMGARGEGSGQEKPVEKRLTAPAVPNGQPVKGRLTVPPSAPTTKPTDGKPVVRRRILLPEHKDFGRIAPDEKTDAGE
Turning to B2, the binding entry in assay [2] and in assay [1] was “binds” throughout.

B3: Rv1265 (protein, UniProt P9WM49 1-226)
chain: MVLARPDAVFAPARNRCHVSLPVNAMSLKMKVCNHVIMRHHHMHGRRYGRPGGWQQAQQPDASGAAEWFAGRLPEDWFDGDPTVIVDREEITVIGKLPGLESPEEESAARASGRVSRFRDETRPERMTIADEAQNRYGRKVSWGVEVGGERILFTHIAVPVMTRLKQPERQVLDTLVDAGVARSRSDALAWSVKLVGEHTEEWLAKLRTAMSAVDDLRAQGPDLPA
Take B3: the binding result in assay [2] and in assay [1] was “binds” throughout.

B4: CtpC (protein, UniProt P9WPT5 1-718)
chain: MTLEVVSDAAGRMRVKVDWVRCDSRRAVAVEEAVAKQNGVRVVHAYPRTGSVVVWYSPRRADRAAVLAAIKGAAHVAAELIPARAPHSAEIRNTDVLRMVIGGVALALLGVRRYVFARPPLLGTTGRTVATGVTIFTGYPFLRGALRSLRSGKAGTDALVSAATVASLILRENVVALTVLWLLNIGEYLQDLTLRRTRRAISELLRGNQDTAWVRLTDPSAGSDAATEIQVPIDTVQIGDEVVVHEHVAIPVDGEVVDGEAIVNQSAITGENLPVSVVVGTRVHAGSVVVRGRVVVRAHAVGNQTTIGRIISRVEEAQLDRAPIQTVGENFSRRFVPTSFIVSAIALLITGDVRRAMTMLLIACPCAVGLSTPTAISAAIGNGARRGILIKGGSHLEQAGRVDAIVFDKTGTLTVGRPVVTNIVAMHKDWEPEQVLAYAASSEIHSRHPLAEAVIRSTEERRISIPPHEECEVLVGLGMRTWADGRTLLLGSPSLLRAEKVRVSKKASEWVDKLRRQAETPLLLAVDGTLVGLISLRDEVRPEAAQVLTKLRANGIRRIVMLTGDHPEIAQVVADELGIDEWRAEVMPEDKLAAVRELQDDGYVVGMVGDGINDAPALAAADIGIAMGLAGTDVAVETADVALANDDLHRLLDVGDLGERAVDVIRQNYGMSIAVNAAGLLIGAGGALSPVLAAILHNASSVAVVANSSRLIRYRLDR
For B4, the binding result in assay [2] and in assay [1] was “binds” throughout.

B5: MoeX (protein, UniProt A5U339 1-330)
chain: MIIELMRRVVGLAQGATAEVAVYGDRDRDLAERWCANTGNTLVRADVDQTGVGTLVVRRGHPPDPASVLGPDRLPGVRLWLYTNFHCNLCCDYCCVSSSPSTPHRELGAERIGRIVGEAARWGVRELFLTGGEPFLLPDIDTIIATCVKQLPTTVLTNGMVFKGRGRRALESLPRGLALQISLDSATPELHDAHRGAGTWVKAVAGIRLALSLGFRVRVAATVASPAPGELTAFHDFLDGLGIAPGDQLVRPIALEGAASQGVALTRESLVPEVTVTADGVYWHPVAATDERALVTRTVEPLTPALDMVSRLFAEQWTRAAEEAALFPCA
On to B5, for which the binding result in assay [2] and in assay [1] was “binds” each time.
